Experimental data taken from patent publication US20180050035A1, “ANTIFUNGAL TREATMENT OF ROSACEA” (Gerbe Labs Inc., priority 2016, published 2018).
At least one compound was matched to its structure with a doubt left.

Test system: Candida albicans
Assay: Culture of Patient 7, sensitivity of isolate
Type: cell-based
Settings: Patient 7 culture
Text: The patient underwent the standard workup for CRS, sleep disorder, and nasal obstruction, plus our diagnostic skin test and sinus CT scan.

## CCC(C)n1ncn(-c2ccc(N3CCN(c4ccc(OCC5COC(Cn6cncn6)(c6ccc(Cl)cc6Cl)O5)cc4)CC3)cc2)c1=O (stereo not shown) [Itraconazole]
  Sensitivity of cultured isolate: sensitive
